Laboratory results: PubChem BioAssay AID1053208 (Peter MacCallum Cancer Centre, 2014)
Aim: 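Find knock-downs that sensitise mouse osteosarcoma cells to doxorubicin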 (primary screen). System: mouse osteosarcoma cells, early-passage culture from an engineered mouse model of fibroblastic bone tumour. Reagents: siRNA pool against mouse genes, 40 nM. Time to read-out: about 120 h (48 h before drug, then 72 h with drug). Challenge: doxorubicin 100 nM for 72 h, roughly 30-40% inhibitory dose. Measurement: 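Luminescent ATP signal taken as viability with or without 100 nM doxorubicin for 72 h; mean of two wells set against non-targeting siRNA and turned into robust z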. Scale: viability z-score with doxorubicin and doxorubicin viability vs non-targeting: higher = more viable cells under doxorubicin; viability z-score without drug: higher = more viable cells with knock-down alone; z-score of drug to no-drug ratio: higher = less drug sensitisation by knock-down. Active means: 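Called active if knock-down leaves viability unchanged without drug (z within -2 to 2) but lowers it with doxorubicin (z at or under -2)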.
The deposit covers about 17,000 reagents; below is a random part of them. In the full data, 788 (4.7%) are marked active. 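Calls rest on z-score classes alone; an extra cut-off of viability at most 70% of control was not applied to them.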

target	combined z-score class	viability z-score with doxorubicin	viability z-score without drug	z-score of drug to no-drug ratio	doxorubicin viability vs non-targeting	call
Vti1b	high cell count without drug only	-1.12	2.7	-2.47	0.84	inactive
Man2b2	no change with or without drug	1.01	0.34	0.9	1.03	inactive
Slc60a2a	no change with or without drug	0.11	1.52	-0.79	0.95	inactive
Pnpo	no change with or without drug	0.67	0.84	0.22	1	inactive
Htr5a	no change with or without drug	0.22	-1.69	1.69	0.96	inactive
Fancc	no change with or without drug	0.67	0	0.79	1	inactive
Tmem62	no change with or without drug	0.9	0.51	0.67	1.02	inactive
Dcbld1	no change with or without drug	0.34	1.52	-0.56	0.97	inactive
Col7a1	no change with or without drug	0.67	1.52	-0.22	1	inactive
Abr	no change with or without drug	1.01	1.52	0.11	1.03	inactive
Tgoln2	no change with or without drug	-0.22	0.84	-0.67	0.92	inactive
Csnk2a1	no change with or without drug	-0.22	1.01	-0.79	0.92	inactive
Pofut2	no change with or without drug	1.12	-0.84	2.02	1.04	inactive
C130021I20Rik	no change with or without drug	0.79	-0.51	1.35	1.01	inactive
Vps26b	high cell count without drug only	0.67	2.87	-1.01	1	inactive
Srsf10	no change with or without drug	-0.22	-0.84	0.45	0.92	inactive
Boc	no change with or without drug	-0.11	0	0	0.93	inactive
Tnfsf10	no change with or without drug	0.56	0.34	0.45	0.99	inactive
Emp2	no change with or without drug	0	0.67	-0.34	0.94	inactive
Rnf34	no change with or without drug	-1.57	-0.84	-1.01	0.8	inactive
Erdr1x	no change with or without drug	-1.57	-1.01	-0.9	0.8	inactive
Nae1	no change with or without drug	-0.56	-0.51	-0.11	0.89	inactive
Kdm4d	no change with or without drug	1.01	1.35	0.22	1.03	inactive
Cyfip1	low cell count without drug only	0.22	-2.19	2.14	0.96	inactive
Smg6	no change with or without drug	-0.45	-0.17	-0.22	0.9	inactive
Pi4k2b	no change with or without drug	0.67	-0.17	0.9	1	inactive
Fosl2	no change with or without drug	0.45	-0.51	1.01	0.98	inactive
Or6c201	no change with or without drug	0.11	1.18	-0.56	0.95	inactive
Zbtb14	no change with or without drug	0.56	0.84	0.11	0.99	inactive
Rhobtb1	no change with or without drug	-1.35	1.01	-1.91	0.82	inactive
Zc2hc1c	no change with or without drug	-0.56	-1.18	0.34	0.89	inactive
Fau	low cell count with and without drug	-5.4	-4.05	-3.71	0.46	inactive
Fbxo24	no change with or without drug	0.22	0.51	0	0.96	inactive
Mast3	no change with or without drug	1.12	0.17	1.12	1.04	inactive
Nsl1	no change with or without drug	0.45	-0.34	0.79	0.98	inactive
Cln3	no change with or without drug	-0.22	-1.18	0.79	0.92	inactive
Ints11	no change with or without drug	-0.45	1.85	-1.46	0.9	inactive
Insl5	high cell count without drug only	1.35	3.04	-0.45	1.06	inactive
Tlnrd1	no change with or without drug	0.45	0.17	0.45	0.98	inactive
Abcb6	no change with or without drug	-0.22	-1.18	0.79	0.92	inactive
Prmt2	no change with or without drug	0.22	-0.17	0.45	0.96	inactive
Zcchc3	no change with or without drug	1.12	1.52	0.22	1.04	inactive
Ank3	no change with or without drug	-0.79	1.01	-1.35	0.87	inactive
Acot4	high cell count with doxorubicin only	2.36	-0.17	2.7	1.15	inactive
Igf2bp3	no change with or without drug	-0.22	0	-0.11	0.92	inactive
Pi15	no change with or without drug	-0.9	-0.17	-0.79	0.86	inactive
TMEM16D	no change with or without drug	0.9	-0.17	1.24	1.02	inactive
Bcap31	low cell count without drug only	-1.12	-2.87	1.12	0.84	inactive
Gpam	no change with or without drug	1.24	1.35	0.45	1.05	inactive
Ciz1	no change with or without drug	-0.9	0.34	-1.01	0.86	inactive
Irf3	no change with or without drug	0.79	0.34	0.67	1.01	inactive
Rabgap1l	no change with or without drug	-1.01	-1.18	-0.11	0.85	inactive
Nudt16l1	no change with or without drug	0	1.52	-0.9	0.94	inactive
Ublcp1	no change with or without drug	0.34	0.51	0.11	0.97	inactive
Kctd13	no change with or without drug	0	-0.34	0.34	0.94	inactive
Guca1a	no change with or without drug	1.57	0.84	1.12	1.08	inactive
Ugt1a1	no change with or without drug	-0.67	-0.34	-0.34	0.88	inactive
Fgf2os	no change with or without drug	0.67	-0.67	1.35	1	inactive
Vcan	no change with or without drug	1.35	0.34	1.24	1.06	inactive
Cimip2a	no change with or without drug	0.11	1.18	-0.56	0.95	inactive
Prr15	no change with or without drug	0.11	0.84	-0.34	0.95	inactive
Abcb10	no change with or without drug	0.56	-0.17	0.79	0.99	inactive
Rbbp4	no change with or without drug	-1.35	0.34	-1.46	0.82	inactive
